# Experimental data taken from the supplement of paper PMC11438910.
# The other results are listed elsewhere or left out. Only a few entries rise above the background.
# B1: 3S41.1 (protein)
# chain 1: EVQLVESGGGLVQPGGSLRLSCATSGFTFRNYWMYWFRQAPGKGLDWVSSISDSSSNTFYSDSVKGRFTISRDNAKNTLYLQMNSLRAEDTAVYYCARRPIAAATGVYWYFDLWGPGTPITVSS
# chain 2: EIVMTQSPATLSLSPGERATLSCRASQNIGSNLAWYQQKPGRAPKLLIYDASSRATGIPDRFSASGSGTDFTLTISSLEPEDVGVYYCQQYNNWKIFGPGTKLEIK
# Assays:
# Experiment in all cases: fluorescence intensity of antibody binding to polysaccharide-coupled beads; higher = stronger binding
# [1] = molecular target: pneumococcal polysaccharide Pn24A; details: antibody concentration 2337.65 ng/mL
# [2] = molecular target: pneumococcal polysaccharide Pn24B
# [3] = molecular target: pneumococcal polysaccharide Pn24F
# [4] = molecular target: pneumococcal polysaccharide Pn25A
# [5] = molecular target: pneumococcal polysaccharide Pn25F
# [6] = molecular target: pneumococcal polysaccharide Pn27
# [7] = molecular target: pneumococcal polysaccharide Pn28A
# [8] = molecular target: pneumococcal polysaccharide Pn28F
# [9] = molecular target: pneumococcal polysaccharide Pn29
# [10] = molecular target: pneumococcal polysaccharide Pn3
# [11] = molecular target: pneumococcal polysaccharide Pn31
# [12] = molecular target: pneumococcal polysaccharide Pn32A
# [13] = molecular target: pneumococcal polysaccharide Pn32F
# [14] = molecular target: pneumococcal polysaccharide Pn33A
# [15] = molecular target: pneumococcal polysaccharide Pn33B
# [16] = molecular target: pneumococcal polysaccharide Pn33C
# [17] = molecular target: pneumococcal polysaccharide Pn33D
# [18] = molecular target: pneumococcal polysaccharide Pn33F
# [19] = molecular target: pneumococcal polysaccharide Pn34
# [20] = molecular target: pneumococcal polysaccharide Pn35A
# [21] = molecular target: pneumococcal polysaccharide Pn35B
# [22] = molecular target: pneumococcal polysaccharide Pn35C
# [23] = molecular target: pneumococcal polysaccharide Pn35F
# [24] = molecular target: pneumococcal polysaccharide Pn36
# [25] = molecular target: pneumococcal polysaccharide Pn37
# [26] = molecular target: pneumococcal polysaccharide Pn38
# [27] = molecular target: pneumococcal polysaccharide Pn39
# [28] = antibody concentration 0.1 ng/mL
# [29] = antibody concentration 0.534724 ng/mL
# [30] = antibody concentration 2.8593 ng/mL
# [31] = antibody concentration 15.2894 ng/mL
# [32] = antibody concentration 81.7561 ng/mL
# [33] = antibody concentration 437.17 ng/mL
# [34] = antibody concentration 2337.65 ng/mL
binder,measurement,setting,value
B1,fluorescence intensity,[1],18 MFI
same,fluorescence intensity,[2]; [28],18 MFI
same,fluorescence intensity,[2]; [29],17.5 MFI
same,fluorescence intensity,[2]; [30],17 MFI
same,fluorescence intensity,[2]; [31],19 MFI
same,fluorescence intensity,[2]; [32],17 MFI
same,fluorescence intensity,[2]; [33],19.2 MFI
same,fluorescence intensity,[2]; [34],22.5 MFI
same,fluorescence intensity,[3]; [28],18.5 MFI
same,fluorescence intensity,[3]; [29],18 MFI
same,fluorescence intensity,[3]; [30],15.2 MFI
same,fluorescence intensity,[3]; [31],15.2 MFI
same,fluorescence intensity,[3]; [32],18 MFI
same,fluorescence intensity,[3]; [33],18.2 MFI
same,fluorescence intensity,[3]; [34],22 MFI
same,fluorescence intensity,[4]; [28],26 MFI
same,fluorescence intensity,[4]; [29],25.5 MFI
same,fluorescence intensity,[4]; [30],23.2 MFI
same,fluorescence intensity,[4]; [31],25.5 MFI
same,fluorescence intensity,[4]; [32],24.5 MFI
same,fluorescence intensity,[4]; [33],25.8 MFI
same,fluorescence intensity,[4]; [34],29 MFI
same,fluorescence intensity,[5]; [28],31.8 MFI
same,fluorescence intensity,[5]; [29],31.5 MFI
same,fluorescence intensity,[5]; [30],32.5 MFI
same,fluorescence intensity,[5]; [31],31.5 MFI
same,fluorescence intensity,[5]; [32],29.5 MFI
same,fluorescence intensity,[5]; [33],29 MFI
same,fluorescence intensity,[5]; [34],33.8 MFI
same,fluorescence intensity,[6]; [28],17.2 MFI
same,fluorescence intensity,[6]; [29],17.5 MFI
same,fluorescence intensity,[6]; [30],16.5 MFI
same,fluorescence intensity,[6]; [31],17.5 MFI
same,fluorescence intensity,[6]; [32],17 MFI
same,fluorescence intensity,[6]; [33],18.5 MFI
same,fluorescence intensity,[6]; [34],27.5 MFI
same,fluorescence intensity,[7]; [28],27 MFI
same,fluorescence intensity,[7]; [29],27 MFI
same,fluorescence intensity,[7]; [30],27.2 MFI
same,fluorescence intensity,[7]; [31],26 MFI
same,fluorescence intensity,[7]; [32],28 MFI
same,fluorescence intensity,[7]; [33],25.8 MFI
same,fluorescence intensity,[7]; [34],29.5 MFI
same,fluorescence intensity,[8]; [28],28.8 MFI
same,fluorescence intensity,[8]; [29],30 MFI
same,fluorescence intensity,[8]; [30],30 MFI
same,fluorescence intensity,[8]; [31],28.2 MFI
same,fluorescence intensity,[8]; [32],28.5 MFI
same,fluorescence intensity,[8]; [33],29.5 MFI
same,fluorescence intensity,[8]; [34],32.5 MFI
same,fluorescence intensity,[9]; [28],15 MFI
same,fluorescence intensity,[9]; [29],17 MFI
same,fluorescence intensity,[9]; [30],16.8 MFI
same,fluorescence intensity,[9]; [31],16 MFI
same,fluorescence intensity,[9]; [32],17.5 MFI
same,fluorescence intensity,[9]; [33],17 MFI
same,fluorescence intensity,[9]; [34],21.5 MFI
same,fluorescence intensity,[10]; [28],14 MFI
same,fluorescence intensity,[10]; [29],13.8 MFI
same,fluorescence intensity,[10]; [30],14.8 MFI
same,fluorescence intensity,[10]; [31],15.5 MFI
same,fluorescence intensity,[10]; [32],14.2 MFI
same,fluorescence intensity,[10]; [33],15 MFI
same,fluorescence intensity,[10]; [34],27.5 MFI
same,fluorescence intensity,[11]; [28],15.5 MFI
same,fluorescence intensity,[11]; [29],15.5 MFI
same,fluorescence intensity,[11]; [30],13.8 MFI
same,fluorescence intensity,[11]; [31],14 MFI
same,fluorescence intensity,[11]; [32],14.5 MFI
same,fluorescence intensity,[11]; [33],14.5 MFI
same,fluorescence intensity,[11]; [34],18.5 MFI
same,fluorescence intensity,[12]; [28],18 MFI
same,fluorescence intensity,[12]; [29],17.5 MFI
same,fluorescence intensity,[12]; [30],18 MFI
same,fluorescence intensity,[12]; [31],18.5 MFI
same,fluorescence intensity,[12]; [32],16.5 MFI
same,fluorescence intensity,[12]; [33],18.8 MFI
same,fluorescence intensity,[12]; [34],20.5 MFI
same,fluorescence intensity,[13]; [28],29.8 MFI
same,fluorescence intensity,[13]; [29],29.2 MFI
same,fluorescence intensity,[13]; [30],29.5 MFI
same,fluorescence intensity,[13]; [31],27.5 MFI
same,fluorescence intensity,[13]; [32],28.5 MFI
same,fluorescence intensity,[13]; [33],28.5 MFI
same,fluorescence intensity,[13]; [34],33.5 MFI
same,fluorescence intensity,[14]; [28],17.8 MFI
same,fluorescence intensity,[14]; [29],18 MFI
same,fluorescence intensity,[14]; [30],18 MFI
same,fluorescence intensity,[14]; [31],16.5 MFI
same,fluorescence intensity,[14]; [32],17 MFI
same,fluorescence intensity,[14]; [33],20.5 MFI
same,fluorescence intensity,[14]; [34],33 MFI
same,fluorescence intensity,[15]; [28],17.5 MFI
same,fluorescence intensity,[15]; [29],18.5 MFI
same,fluorescence intensity,[15]; [30],18.5 MFI
same,fluorescence intensity,[15]; [31],17 MFI
same,fluorescence intensity,[15]; [32],18.5 MFI
same,fluorescence intensity,[15]; [33],17 MFI
same,fluorescence intensity,[15]; [34],19 MFI
same,fluorescence intensity,[16]; [28],20 MFI
same,fluorescence intensity,[16]; [29],20.8 MFI
same,fluorescence intensity,[16]; [30],20 MFI
same,fluorescence intensity,[16]; [31],20 MFI
same,fluorescence intensity,[16]; [32],20 MFI
same,fluorescence intensity,[16]; [33],18 MFI
same,fluorescence intensity,[16]; [34],21 MFI
same,fluorescence intensity,[17]; [28],17.5 MFI
same,fluorescence intensity,[17]; [29],16.5 MFI
same,fluorescence intensity,[17]; [30],15 MFI
same,fluorescence intensity,[17]; [31],17 MFI
same,fluorescence intensity,[17]; [32],17.2 MFI
same,fluorescence intensity,[17]; [33],16.2 MFI
same,fluorescence intensity,[17]; [34],17 MFI
same,fluorescence intensity,[18]; [28],13.5 MFI
same,fluorescence intensity,[18]; [29],14 MFI
same,fluorescence intensity,[18]; [30],12.2 MFI
same,fluorescence intensity,[18]; [31],14 MFI
same,fluorescence intensity,[18]; [32],13 MFI
same,fluorescence intensity,[18]; [33],15.8 MFI
same,fluorescence intensity,[18]; [34],21.2 MFI
same,fluorescence intensity,[19]; [28],14.5 MFI
same,fluorescence intensity,[19]; [29],14 MFI
same,fluorescence intensity,[19]; [30],14 MFI
same,fluorescence intensity,[19]; [31],16.8 MFI
same,fluorescence intensity,[19]; [32],14.5 MFI
same,fluorescence intensity,[19]; [33],13.5 MFI
same,fluorescence intensity,[19]; [34],16 MFI
same,fluorescence intensity,[20]; [28],17 MFI
same,fluorescence intensity,[20]; [29],16 MFI
same,fluorescence intensity,[20]; [30],16.8 MFI
same,fluorescence intensity,[20]; [31],15 MFI
same,fluorescence intensity,[20]; [32],16.5 MFI
same,fluorescence intensity,[20]; [33],17.5 MFI
same,fluorescence intensity,[20]; [34],19 MFI
same,fluorescence intensity,[21]; [28],18.2 MFI
same,fluorescence intensity,[21]; [29],18 MFI
same,fluorescence intensity,[21]; [30],16 MFI
same,fluorescence intensity,[21]; [31],17.5 MFI
same,fluorescence intensity,[21]; [32],18.8 MFI
same,fluorescence intensity,[21]; [33],17.2 MFI
same,fluorescence intensity,[21]; [34],21 MFI
same,fluorescence intensity,[22]; [28],20.5 MFI
same,fluorescence intensity,[22]; [29],20 MFI
same,fluorescence intensity,[22]; [30],20 MFI
same,fluorescence intensity,[22]; [31],19 MFI
same,fluorescence intensity,[22]; [32],19.5 MFI
same,fluorescence intensity,[22]; [33],21 MFI
same,fluorescence intensity,[22]; [34],21 MFI
same,fluorescence intensity,[23]; [28],21.5 MFI
same,fluorescence intensity,[23]; [29],20.2 MFI
same,fluorescence intensity,[23]; [30],16.5 MFI
same,fluorescence intensity,[23]; [31],23.5 MFI
same,fluorescence intensity,[23]; [32],18 MFI
same,fluorescence intensity,[23]; [33],21.5 MFI
same,fluorescence intensity,[23]; [34],19.8 MFI
same,fluorescence intensity,[24]; [28],17 MFI
same,fluorescence intensity,[24]; [29],15.5 MFI
same,fluorescence intensity,[24]; [30],15.5 MFI
same,fluorescence intensity,[24]; [31],17 MFI
same,fluorescence intensity,[24]; [32],16.5 MFI
same,fluorescence intensity,[24]; [33],17 MFI
same,fluorescence intensity,[24]; [34],20 MFI
same,fluorescence intensity,[25]; [28],24.8 MFI
same,fluorescence intensity,[25]; [29],25 MFI
same,fluorescence intensity,[25]; [30],25 MFI
same,fluorescence intensity,[25]; [31],28 MFI
same,fluorescence intensity,[25]; [32],25.5 MFI
same,fluorescence intensity,[25]; [33],27.2 MFI
same,fluorescence intensity,[25]; [34],43.8 MFI
same,fluorescence intensity,[26]; [28],26.2 MFI
same,fluorescence intensity,[26]; [29],25.5 MFI
same,fluorescence intensity,[26]; [30],25.5 MFI
same,fluorescence intensity,[26]; [31],25 MFI
same,fluorescence intensity,[26]; [32],26.5 MFI
same,fluorescence intensity,[26]; [33],26.5 MFI
same,fluorescence intensity,[26]; [34],29 MFI
same,fluorescence intensity,[27]; [28],19.5 MFI
same,fluorescence intensity,[27]; [29],17.5 MFI
same,fluorescence intensity,[27]; [30],18.8 MFI
same,fluorescence intensity,[27]; [31],18 MFI

# Quoted at random: 4 entries already listed
binder,measurement,setting,value
B1,fluorescence intensity,[23]; [31],23.5 MFI
same,fluorescence intensity,[15]; [34],19 MFI
same,fluorescence intensity,[8]; [29],30 MFI
same,fluorescence intensity,[3]; [32],18 MFI

# Reformatted: results already given
binder | measurement | setting | value
B1 | fluorescence intensity | [2]; [32] | 17 MFI
same | fluorescence intensity | [3]; [31] | 15.2 MFI
same | fluorescence intensity | [4]; [31] | 25.5 MFI
same | fluorescence intensity | [8]; [33] | 29.5 MFI
same | fluorescence intensity | [16]; [28] | 20 MFI
same | fluorescence intensity | [22]; [29] | 20 MFI
same | fluorescence intensity | [27]; [29] | 17.5 MFI
